Test results taken from US20100099710A1, “SRC FAMILY KINASE INHIBITORS” (priority 2007, published 2010).
The match of structure and compound is tentative.

By UniProt entry, the sequences of proteins in these tests, tags left out.
UniProt P04049, whole entry: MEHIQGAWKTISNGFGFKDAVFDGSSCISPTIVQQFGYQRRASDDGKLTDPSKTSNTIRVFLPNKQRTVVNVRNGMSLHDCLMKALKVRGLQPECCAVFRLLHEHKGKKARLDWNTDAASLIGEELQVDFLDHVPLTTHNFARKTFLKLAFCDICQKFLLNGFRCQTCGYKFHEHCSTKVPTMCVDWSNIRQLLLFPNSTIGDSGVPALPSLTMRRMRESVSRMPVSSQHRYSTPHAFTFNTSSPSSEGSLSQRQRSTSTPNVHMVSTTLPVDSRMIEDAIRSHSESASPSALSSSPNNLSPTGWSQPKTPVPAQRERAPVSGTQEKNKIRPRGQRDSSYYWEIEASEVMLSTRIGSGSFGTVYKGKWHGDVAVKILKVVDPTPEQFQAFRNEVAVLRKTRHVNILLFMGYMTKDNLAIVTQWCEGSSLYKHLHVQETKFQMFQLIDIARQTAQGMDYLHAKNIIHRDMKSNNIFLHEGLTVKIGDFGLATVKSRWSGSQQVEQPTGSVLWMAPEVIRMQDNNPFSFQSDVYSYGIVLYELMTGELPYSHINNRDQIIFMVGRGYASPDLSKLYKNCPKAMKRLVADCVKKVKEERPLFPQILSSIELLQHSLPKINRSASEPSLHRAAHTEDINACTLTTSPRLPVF

Target: Raf-1 (Homo sapiens, UniProt P04049)
Experiment: Kinase screen, recombinant kinase, [γ-33P-ATP] filter assay
Procedure: Compound 6 was tested in vitro at the concentration of 1 μM with 204 kinases from a screening panel including 70 tyrosine kinases (both receptor tyrosine kinases and protein tyrosine kinases) and 134 serine/threonine kinases. Each recombinant kinase (5-10 mU) was incubated with [γ-33P-ATP], protein substrate, compound, and the reaction initiated by the addition of MgATP. After incubation for 40 minutes, the reaction was stopped by the addition of 5 μL of a 3% phosphoric acid solution. 10 μL of the reaction was then spotted onto a P30 filtermat and washed three times for 5 minutes in 75 mM phosphoric acid and once in methanol prior to drying and scintillation counting. The final concentration of ATP in the assay was 10 μM.

IC50: 14 nM
inhibition of Raf-1 (concentration of 1 μM): 91%
SMILES: CNC(=O)Nc1cc(CNc2ccccc2C(=O)NOCC2CCCC2)ccn1
